PubChem BioAssay AID1259405 | NCATS, 2018
The whole screen tested about 50,000 reagents; below is an unselected part. Of all reagents, about 4,000 (8%) got an active call. 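Mouse siRNA library applied to hamster cells; one well for each siRNA.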 A number with no mark means an inactive call. Reagents against one gene are numbered here.

Screen: 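Mouse-designed siRNAs used to find CHO productivity engineering targets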 (primary screen)
Cells: Chinese hamster CHO-K1 ovary cells with stable secreted eGFP expression
Reagent: single siRNA against mouse genes, 0.8 pmol siRNA per well (2 µl of 400 nM stock)
Timing: 3 days
Read-out: 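Per-well intracellular GFP measured by laser scanning cytometry, plus viability from ATP luminescence, each relative to plate median of non-targeting control wells, in %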
Reading the numbers: GFP, % of control: higher = more GFP per well, higher productivity; viability (ATP), % of control: higher = more viable cells (more ATP)
Hit rule: 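a knock-down is called active if GFP reaches 120% or more of non-targeting control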

| target gene | reagent no. | GFP, % of control | viability (ATP), % of control |
| --- | --- | --- | --- |
| Sash3 (SAM and SH3 domain containing 3) | 1 | 114 | 122 |
| Sash3 (SAM and SH3 domain containing 3) | 2 | 47.7 | 104 |
| Sash3 (SAM and SH3 domain containing 3) | 3 | 66.5 | 33.9 |
| Tshz3 (teashirt zinc finger family member 3) | 1 | 63.4 | 80.4 |
| Tshz3 (teashirt zinc finger family member 3) | 2 | 103 | 100 |
| Tshz3 (teashirt zinc finger family member 3) | 3 | 77.2 | 107 |
| Slc5a12 | 1 | 39 | 80.8 |
| Slc5a12 | 2 | 49.9 | 81.9 |
| Slc5a12 | 3 | 87.4 | 76.8 |
| Or7a40 (olfactory receptor family 7 subfamily A member 40) | 1 | 66.6 | 63.3 |
| Or7a40 (olfactory receptor family 7 subfamily A member 40) | 2 | 54.1 | 80.4 |
| Or7a40 (olfactory receptor family 7 subfamily A member 40) | 3 | 77.4 | 96.5 |
| Usp20 (ubiquitin specific peptidase 20) | 1 | 96.9 | 106 |
| Usp20 (ubiquitin specific peptidase 20) | 2 | 93.2 | 70.1 |
| Usp20 (ubiquitin specific peptidase 20) | 3 | 72.6 | 92.8 |
| Retn (resistin) | 1 | 63.3 | 41.9 |
| Retn (resistin) | 2 | 72.3 | 55.7 |
| Retn (resistin) | 3 | 67.4 | 93.4 |
| Xpc (xeroderma pigmentosum, complementation group C) | 1 | 98.5 | 80.1 |
| Xpc (xeroderma pigmentosum, complementation group C) | 2 | 56.8 | 64.3 |
| Tmem69 (transmembrane protein 69) | 1 | 128 (active) | 96.8 |
| Tmem69 (transmembrane protein 69) | 2 | 33.1 | 18.2 |
| Tmem69 (transmembrane protein 69) | 3 | 84.6 | 95.2 |
| Fes (Fes proto-oncogene, tyrosine kinase) | 1 | 75.6 | 75.5 |
| Asb12 (ankyrin repeat and SOCS box-containing 12) | 1 | 74.6 | 66.3 |
| Asb12 (ankyrin repeat and SOCS box-containing 12) | 2 | 53.8 | 68.7 |
| Asb12 (ankyrin repeat and SOCS box-containing 12) | 3 | 39.2 | 57.3 |
| Zfp462 (zinc finger protein 462) | 1 | 83.5 | 53.9 |
| Zfp462 (zinc finger protein 462) | 2 | 62.5 | 84.4 |
| Zfp462 (zinc finger protein 462) | 3 | 113 | 89.9 |
| Myo7b (myosin VIIB) | 1 | 46.8 | 60 |
| Myo7b (myosin VIIB) | 2 | 74.6 | 80.2 |
| Myo7b (myosin VIIB) | 3 | 76.5 | 66.6 |
| Tas2r137 (taste receptor, type 2, member 137) | 1 | 52 | 81.2 |
| Tas2r137 (taste receptor, type 2, member 137) | 2 | 93.1 | 94.8 |
| Tas2r137 (taste receptor, type 2, member 137) | 3 | 83.6 | 75.2 |
| Foxp2 (forkhead box P2) | 1 | 31.5 | 66.5 |
| Foxp2 (forkhead box P2) | 2 | 86.9 | 110 |
| Mapk1ip1l | 1 | 35.2 | 64 |
| Mapk1ip1l | 2 | 71.5 | 70.8 |
| Mapk1ip1l | 3 | 127 (active) | 138 |
| Strn (striatin, calmodulin binding protein) | 1 | 44.1 | 44.3 |
| Strn (striatin, calmodulin binding protein) | 2 | 108 | 110 |
| Strn (striatin, calmodulin binding protein) | 3 | 122 (active) | 101 |
| Ntm (neurotrimin) | 1 | 78.3 | 84.1 |
| Ntm (neurotrimin) | 2 | 70.3 | 60.2 |
| Fsip1 (fibrous sheath-interacting protein 1) | 1 | 84.8 | 86.8 |
| Fsip1 (fibrous sheath-interacting protein 1) | 2 | 111 | 76.3 |
| Fsip1 (fibrous sheath-interacting protein 1) | 3 | 107 | 56.2 |
| Bdh1 (3-hydroxybutyrate dehydrogenase, type 1) | 1 | 95.2 | 97.7 |
| Bdh1 (3-hydroxybutyrate dehydrogenase, type 1) | 2 | 65.5 | 74.5 |
| Bdh1 (3-hydroxybutyrate dehydrogenase, type 1) | 3 | 53.5 | 70.8 |
| Klf4 (Kruppel-like transcription factor 4 (gut)) | 1 | 110 | 130 |
| Klf4 (Kruppel-like transcription factor 4 (gut)) | 2 | 70 | 67.7 |
| Klf4 (Kruppel-like transcription factor 4 (gut)) | 3 | 61.6 | 84.4 |
| Map7d1 (MAP7 domain containing 1) | 1 | 64.6 | 67.5 |
| Map7d1 (MAP7 domain containing 1) | 2 | 62.1 | 72.3 |
| Map7d1 (MAP7 domain containing 1) | 3 | 68.4 | 67.8 |
| Vps8 (VPS8 CORVET complex subunit) | 1 | 112 | 106 |
| Vps8 (VPS8 CORVET complex subunit) | 2 | 87.8 | 62.3 |
| Vps8 (VPS8 CORVET complex subunit) | 3 | 72.2 | 71.5 |
| Or2o1 (olfactory receptor family 2 subfamily O member 1) | 1 | 112 | 101 |
| Or2o1 (olfactory receptor family 2 subfamily O member 1) | 2 | 95.6 | 66.6 |
| Or2o1 (olfactory receptor family 2 subfamily O member 1) | 3 | 36.5 | 73.8 |
| Boc (BOC cell adhesion associated, oncogene regulated) | 1 | 79.8 | 71.8 |
| Boc (BOC cell adhesion associated, oncogene regulated) | 2 | 123 (active) | 74.3 |
| Boc (BOC cell adhesion associated, oncogene regulated) | 3 | 90.4 | 66 |
| Or4s2b (olfactory receptor family 4 subfamily S member 2B) | 1 | 59.2 | 80.7 |
| Or4s2b (olfactory receptor family 4 subfamily S member 2B) | 2 | 71.1 | 81.3 |
| Or4s2b (olfactory receptor family 4 subfamily S member 2B) | 3 | 73 | 62.8 |
| Fgf9 (fibroblast growth factor 9) | 1 | 48.7 | 57.8 |
| Fgf9 (fibroblast growth factor 9) | 2 | 55.9 | 76 |
| Fgf9 (fibroblast growth factor 9) | 3 | 61.1 | 74 |
| Prl7a1 (prolactin family 7, subfamily a, member 1) | 1 | 54.6 | 70.9 |
| Prl7a1 (prolactin family 7, subfamily a, member 1) | 2 | 54.7 | 101 |
| Prl7a1 (prolactin family 7, subfamily a, member 1) | 3 | 39.4 | 42.3 |
| Or52e18 (olfactory receptor family 52 subfamily E member 18) | 1 | 112 | 65.1 |
| Or52e18 (olfactory receptor family 52 subfamily E member 18) | 2 | 93.1 | 74.2 |
| Or52e18 (olfactory receptor family 52 subfamily E member 18) | 3 | 75.4 | 98.3 |
| Fam78b (family with sequence similarity 78, member B) | 1 | 20.1 | 28.1 |
| Fam78b (family with sequence similarity 78, member B) | 2 | 96 | 103 |
| Fam78b (family with sequence similarity 78, member B) | 3 | 99.2 | 96.2 |
| Fundc2 (FUN14 domain containing 2) | 1 | 65 | 74.3 |
| Fundc2 (FUN14 domain containing 2) | 2 | 36.5 | 54.1 |
| Fundc2 (FUN14 domain containing 2) | 3 | 76.1 | 73.1 |

7 of these entries, set out differently:
{"target gene":"Or7a40 (olfactory receptor family 7 subfamily A member 40)","reagent no.":2,"GFP, % of control":54.1,"viability (ATP), % of control":80.4}
{"target gene":"Or7a40 (olfactory receptor family 7 subfamily A member 40)","reagent no.":3,"GFP, % of control":77.4,"viability (ATP), % of control":96.5}
{"target gene":"Usp20 (ubiquitin specific peptidase 20)","reagent no.":1,"GFP, % of control":96.9,"viability (ATP), % of control":106}
{"target gene":"Usp20 (ubiquitin specific peptidase 20)","reagent no.":2,"GFP, % of control":93.2,"viability (ATP), % of control":70.1}
{"target gene":"Usp20 (ubiquitin specific peptidase 20)","reagent no.":3,"GFP, % of control":72.6,"viability (ATP), % of control":92.8}
{"target gene":"Retn (resistin)","reagent no.":1,"GFP, % of control":63.3,"viability (ATP), % of control":41.9}
{"target gene":"Retn (resistin)","reagent no.":2,"GFP, % of control":72.3,"viability (ATP), % of control":55.7}
